Data on five substances can be found in patent US4547489A (Ortho Pharmaceutical Corporation, priority 1984, dated 1985).

This data set in a line: general procedure: solution-phase peptide synthesis; DCC/HOBt; isobutyl chloroformate/N-methylmorpholine mixed anhydride; diphenylpho. The following applies: late stage modification step.
On to “Aoc-Arg(Tos)-Lys(Z)-Asp(OBzl)-Val-Tyr(Bzl)-Gly”, for which the step yield stood at 93%.
For “HCl Arg(Tos)-Lys(Z)-Asp(OBzl)-Val-Tyr(Bzl)” the value was 100%.
For “Aoc-Arg(Tos)-Lys(Z)-Asp(OBzl)-Val-Tyr(Bzl)” the value was 96%; for “HCl Arg(Tos)-Lys(Z)-Asp(OBzl)-Val-Tyr(Bzl)-Gly”, 100%; for FMOC-Lys-(HCl)-Asp-Val-Tyr-OBzl, 100%.
